Results taken from the supplement of paper PMC6078165.
± gives the standard deviation of the averaged measurements. Values are relative to the signal before dosing, not to a vehicle control; the signal also falls without drug.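 Fibroblast labels name human fibroblasts: mostly primary ones from tissues such as uterus (C12385, HUF), lung (H6013), bone (Hs27A), adrenal (HADF) and skin (WS1), plus mammary HMF and breast cancer-associated Hs343T. The cancer cells are basal-like or mesenchymal-like triple-negative breast cancer lines. The paper calls a changed response a hit when it shifts by more than 3x the replicate standard deviation. The tissue of the other fibroblasts is not given here.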

System: BT20
Experiment: relative JC-1 red fluorescence (viability) vs pre-drug, coculture with fibroblast (fraction); higher = more viable cancer cells
Experimental: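 JC-1 labelled TNBC cells cocultured 1:1 (1,500 cells each) with CellTrace Violet stained primary or stromal fibroblasts in 384-well plates in FluoroBrite medium, treated with one of 42 anticancer drugs at 0.1, 1, 10 or 100 uM. JC-1 red fluorescence (mitochondrial integrity in cancer cells only) was read by plate reader every 8 h for 72 h. Values are normalised to each well's pre-drug value. The stock of one drug was tenfold lower, so its dose labels may be too high.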

N.N.[Cl][Pt][Cl] [Cisplatin]
relative JC-1 red fluorescence
Details | 8 h | 16 h | 24 h | 32 h | 40 h | 48 h | 56 h | 64 h | 72 h
0.1 µM, coculture fibroblast: C12385 | 0.872 ± 0.03 | 0.786 ± 0.014 | 0.723 ± 0.02 | 0.654 ± 0.03 | 0.601 ± 0.028 | 0.567 ± 0.018 | 0.545 ± 0.016 | 0.536 ± 0.011 | 0.524 ± 0.015
0.1 µM, coculture fibroblast: H6013 | 0.94882 ± 0.00081 | 0.918 ± 0.028 | 0.891 ± 0.072 | 0.85 ± 0.097 | 0.828 ± 0.13 | 0.805 ± 0.15 | 0.813 ± 0.18 | 0.791 ± 0.19 | 0.771 ± 0.18
0.1 µM, coculture fibroblast: H6019 | 0.8469 ± 0.0072 | 0.782 ± 0.014 | 0.754 ± 0.026 | 0.702 ± 0.029 | 0.652 ± 0.042 | 0.64 ± 0.057 | 0.606 ± 0.067 | 0.58 ± 0.074 | 0.562 ± 0.082
0.1 µM, coculture fibroblast: H6076 | 0.866 ± 0.15 | 0.8936 ± 0.0034 | 0.818 ± 0.012 | 0.791 ± 0.018 | 0.77 ± 0.033 | 0.757 ± 0.049 | 0.751 ± 0.065 | 0.751 ± 0.069 | 0.743 ± 0.071
0.1 µM, coculture fibroblast: H6231 | 0.846 ± 0.16 | 0.871 ± 0.011 | 0.791 ± 0.012 | 0.727 ± 0.024 | 0.691 ± 0.045 | 0.64 ± 0.059 | 0.608 ± 0.066 | 0.59 ± 0.078 | 0.582 ± 0.077
0.1 µM, coculture fibroblast: HADF | 0.89 ± 0.15 | 0.948 ± 0.066 | 0.9 ± 0.13 | 0.872 ± 0.12 | 0.845 ± 0.16 | 0.809 ± 0.17 | 0.799 ± 0.2 | 0.779 ± 0.21 | 0.762 ± 0.21
0.1 µM, coculture fibroblast: HCFa | 0.9222 ± 0.0034 | 0.8678 ± 0.0082 | 0.8426 ± 0.0083 | 0.787 ± 0.014 | 0.757 ± 0.026 | 0.725 ± 0.029 | 0.698 ± 0.038 | 0.679 ± 0.054 | 0.64 ± 0.057
0.1 µM, coculture fibroblast: HCPF | 0.9862 ± 0.0054 | 0.8676 ± 0.0065 | 0.79 ± 0.012 | 0.743 ± 0.018 | 0.703 ± 0.024 | 0.663 ± 0.032 | 0.635 ± 0.03 | 0.628 ± 0.033 | 0.605 ± 0.033
0.1 µM, coculture fibroblast: HHSteC | 0.913 ± 0.049 | 0.881 ± 0.08 | 0.876 ± 0.12 | 0.819 ± 0.15 | 0.791 ± 0.17 | 0.77 ± 0.18 | 0.747 ± 0.19 | 0.736 ± 0.19 | 0.709 ± 0.2
0.1 µM, coculture fibroblast: HMF | 0.936 ± 0.013 | 0.851 ± 0.013 | 0.768 ± 0.02 | 0.701 ± 0.013 | 0.668 ± 0.023 | 0.623 ± 0.026 | 0.599 ± 0.017 | 0.58 ± 0.017 | 0.572 ± 0.015
0.1 µM, coculture fibroblast: HPFa | 0.924 ± 0.027 | 0.86561 ± 0.00046 | 0.862 ± 0.0092 | 0.793 ± 0.0078 | 0.774 ± 0.012 | 0.74 ± 0.036 | 0.719 ± 0.033 | 0.699 ± 0.04 | 0.658 ± 0.056
0.1 µM, coculture fibroblast: HUF | 0.882 ± 0.016 | 0.802 ± 0.029 | 0.762 ± 0.038 | 0.676 ± 0.043 | 0.629 ± 0.046 | 0.602 ± 0.04 | 0.588 ± 0.037 | 0.576 ± 0.042 | 0.566 ± 0.042
0.1 µM, coculture fibroblast: Hs5 | 0.926 ± 0.091 | 0.8722 ± 0.0019 | 0.796 ± 0.022 | 0.747 ± 0.035 | 0.699 ± 0.042 | 0.666 ± 0.038 | 0.641 ± 0.04 | 0.612 ± 0.034 | 0.59 ± 0.036
0.1 µM, coculture fibroblast: Hs27A | 0.732 ± 0.022 | 0.757 ± 0.054 | 0.934 ± 0.041 | 0.952 ± 0.039 | 0.912 ± 0.032 | 0.902 ± 0.035 | 0.892 ± 0.049 | 0.872 ± 0.052 | 0.825 ± 0.058
0.1 µM, coculture fibroblast: Hs343T | 0.844 ± 0.099 | 0.854 ± 0.063 | 0.752 ± 0.051 | 0.693 ± 0.041 | 0.659 ± 0.041 | 0.616 ± 0.038 | 0.573 ± 0.029 | 0.549 ± 0.035 | 0.526 ± 0.031
0.1 µM, coculture fibroblast: WS1 | 0.83 ± 0.012 | 0.734 ± 0.018 | 0.7 ± 0.043 | 0.63 ± 0.045 | 0.585 ± 0.05 | 0.563 ± 0.049 | 0.537 ± 0.052 | 0.518 ± 0.043 | 0.511 ± 0.051
1 µM, coculture fibroblast: C12385 | 0.877 ± 0.024 | 0.819 ± 0.038 | 0.797 ± 0.063 | 0.732 ± 0.077 | 0.691 ± 0.081 | 0.672 ± 0.092 | 0.656 ± 0.096 | 0.64 ± 0.095 | 0.636 ± 0.11
1 µM, coculture fibroblast: H6013 | 0.911 ± 0.036 | 0.899 ± 0.067 | 0.9 ± 0.094 | 0.858 ± 0.092 | 0.839 ± 0.097 | 0.838 ± 0.098 | 0.851 ± 0.12 | 0.838 ± 0.12 | 0.833 ± 0.13
1 µM, coculture fibroblast: H6019 | 0.8458 ± 0.0018 | 0.7774 ± 0.0058 | 0.778 ± 0.022 | 0.71 ± 0.022 | 0.657 ± 0.015 | 0.637 ± 0.0088 | 0.611 ± 0.011 | 0.586 ± 0.018 | 0.565 ± 0.016
1 µM, coculture fibroblast: H6076 | 0.98 ± 0.0044 | 0.8925 ± 0.0066 | 0.825 ± 0.018 | 0.792 ± 0.033 | 0.767 ± 0.043 | 0.752 ± 0.038 | 0.755 ± 0.036 | 0.751 ± 0.04 | 0.734 ± 0.03
1 µM, coculture fibroblast: H6231 | 0.9584 ± 0.0083 | 0.875 ± 0.012 | 0.8084 ± 0.0059 | 0.754 ± 0.015 | 0.718 ± 0.018 | 0.679 ± 0.018 | 0.661 ± 0.024 | 0.639 ± 0.038 | 0.626 ± 0.034
1 µM, coculture fibroblast: HADF | 0.936 ± 0.017 | 0.887 ± 0.0045 | 0.843 ± 0.015 | 0.8013 ± 0.0075 | 0.797 ± 0.0095 | 0.771 ± 0.0026 | 0.7531 ± 0.00079 | 0.749 ± 0.0075 | 0.7247 ± 0.006
1 µM, coculture fibroblast: HCFa | 0.91 ± 0.023 | 0.831 ± 0.044 | 0.8 ± 0.069 | 0.74 ± 0.08 | 0.702 ± 0.084 | 0.676 ± 0.095 | 0.656 ± 0.096 | 0.633 ± 0.1 | 0.59 ± 0.1
1 µM, coculture fibroblast: HCPF | 0.876 ± 0.14 | 0.902 ± 0.016 | 0.827 ± 0.01 | 0.7687 ± 0.0053 | 0.728 ± 0.014 | 0.692 ± 0.025 | 0.677 ± 0.044 | 0.669 ± 0.048 | 0.647 ± 0.047
1 µM, coculture fibroblast: HHSteC | 0.911 ± 0.018 | 0.885 ± 0.019 | 0.866 ± 0.014 | 0.818 ± 0.026 | 0.788 ± 0.023 | 0.771 ± 0.03 | 0.766 ± 0.029 | 0.745 ± 0.026 | 0.731 ± 0.024
1 µM, coculture fibroblast: HMF | 0.946 ± 0.027 | 0.824 ± 0.018 | 0.7334 ± 0.0022 | 0.673 ± 0.016 | 0.632 ± 0.015 | 0.585 ± 0.03 | 0.575 ± 0.052 | 0.56 ± 0.052 | 0.535 ± 0.056
1 µM, coculture fibroblast: HPFa | 0.897 ± 0.013 | 0.871 ± 0.0051 | 0.87 ± 0.022 | 0.799 ± 0.017 | 0.781 ± 0.017 | 0.749 ± 0.018 | 0.737 ± 0.019 | 0.72 ± 0.015 | 0.677 ± 0.01
1 µM, coculture fibroblast: HUF | 0.877 ± 0.018 | 0.82 ± 0.034 | 0.794 ± 0.048 | 0.714 ± 0.056 | 0.664 ± 0.059 | 0.629 ± 0.064 | 0.616 ± 0.071 | 0.602 ± 0.08 | 0.589 ± 0.086
1 µM, coculture fibroblast: Hs5 | 0.919 ± 0.022 | 0.8262 ± 0.0052 | 0.776 ± 0.01 | 0.73 ± 0.02 | 0.715 ± 0.025 | 0.699 ± 0.024 | 0.69 ± 0.031 | 0.687 ± 0.025 | 0.682 ± 0.025
1 µM, coculture fibroblast: Hs27A | 0.874 ± 0.12 | 0.818 ± 0.11 | 0.888 ± 0.079 | 0.885 ± 0.11 | 0.875 ± 0.11 | 0.894 ± 0.12 | 0.898 ± 0.12 | 0.892 ± 0.12 | 0.866 ± 0.13
1 µM, coculture fibroblast: Hs343T | 0.951 ± 0.012 | 0.8248 ± 0.0076 | 0.723 ± 0.009 | 0.655 ± 0.011 | 0.625 ± 0.0077 | 0.581 ± 0.0065 | 0.548 ± 0.0077 | 0.525 ± 0.015 | 0.508 ± 0.03
1 µM, coculture fibroblast: WS1 | 0.8575 ± 0.0036 | 0.79178 ± 0.00044 | 0.763 ± 0.03 | 0.687 ± 0.032 | 0.635 ± 0.041 | 0.603 ± 0.05 | 0.58 ± 0.052 | 0.56 ± 0.057 | 0.554 ± 0.059
